Assay results published in PMC7819943, “Rice protein-binding microarrays: a tool to detect cis-acting elements near promoter regions in rice”.
The other results are listed elsewhere or left out.

Amino acid sequences for entries named in this document (tags omitted).
UniProt Q0JBA9, entry or part of it: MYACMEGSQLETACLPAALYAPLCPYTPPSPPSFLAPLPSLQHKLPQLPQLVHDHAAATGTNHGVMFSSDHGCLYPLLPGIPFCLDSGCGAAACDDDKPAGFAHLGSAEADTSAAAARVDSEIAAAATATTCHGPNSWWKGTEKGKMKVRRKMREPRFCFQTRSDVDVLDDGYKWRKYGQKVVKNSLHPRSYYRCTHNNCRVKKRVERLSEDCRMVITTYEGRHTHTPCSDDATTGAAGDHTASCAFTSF

molecular target: OsWRKY34 (Oryza sativa, UniProt Q0JBA9 1-250); test: protein-binding microarray (RPBM); PBS, 2% BSA, 51.3 ng/ul salmon testes DNA, 50 uM zinc acetate, 200 nM TF, 25 C, 1 h; high values mean tight binding; details: protein: recombinant; tags: N-terminal polyhistidine and DsRed monomer fusion (pET32a); label: CyDye5-dUTP incorporated in the synthesized complementary strand; 3' TTTTT single-stranded linker to array surface; dsDNA, one strand shown
Summary of the method: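 In PBS with 2% BSA, salmon testes DNA and 50 µM zinc acetate, 200 nM protein was incubated on a custom Agilent array at 25 °C for 1 h and then washed off. The array had been made double-stranded by primer extension with Cy5-dUTP and blocked with 2% BSA. The proteins were transcription factors fused N-terminally to polyhistidine and DsRed, expressed in E. coli BL21-CodonPlus and purified on Ni–NTA. The binding signal is per-feature fluorescence intensity (arbitrary units) from an Axon 4000B scanner.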

| Sequence | binding signal |
| --- | --- |
| GACCTATTGTGACCGGTTTTGATTAGTTAAGGGACGCCGGCGGAGTCACCTAGTGCAG | 9240 fluorescence intensity (a.u.) |
| GCCTCGTATTCTCGTGTAATGGCATACTACACCTACTCTACGGAGTCACCTAGTGCAG | 8780 fluorescence intensity (a.u.) |
| CACTCTACAAGGTACCACAGTACATCTTTTCTTTTTTTTTCGGAGTCACCTAGTGCAG | 9210 fluorescence intensity (a.u.) |
| AACATACTCGACTACATGCTTGTTCCTATTGTTATCTACACGGAGTCACCTAGTGCAG | 12200 fluorescence intensity (a.u.) |
| GCCGTCCCGCCCACCGCCGCCACCTACGCGCTCTACCTCTCGGAGTCACCTAGTGCAG | 8420 fluorescence intensity (a.u.) |
| CAGACTTGAGAGGCTAATTTTTTCGTACCTGTAGCTTTATCGGAGTCACCTAGTGCAG | 8140 fluorescence intensity (a.u.) |
| CGACGCAGACACTTGTAGCATTAGATTTCATTGTTTTGTCCGGAGTCACCTAGTGCAG | 9350 fluorescence intensity (a.u.) |
| TGGGTTGTGGCAGTGTCTTATAAGGCTATATTAAGTCTATCGGAGTCACCTAGTGCAG | 8060 fluorescence intensity (a.u.) |
| AGACATCGGAATCCGGACGCTATCCTTCTCGTCTTCTCGTCGGAGTCACCTAGTGCAG | 10700 fluorescence intensity (a.u.) |
| GAGGGGTGGCAGTTGTCGGAGCTAGGGGAGGGAGAGGCGGCGGAGTCACCTAGTGCAG | 13500 fluorescence intensity (a.u.) |
| GCCTTCATCATATTCCCAGCTGGTAACTCTATCCATTGACCGGAGTCACCTAGTGCAG | 16400 fluorescence intensity (a.u.) |
| TTCGTCAGTCATCTGAGCAAGATTTTCTTTGCTATTCCAGCGGAGTCACCTAGTGCAG | 8060 fluorescence intensity (a.u.) |
| ACAAACCCACTATGTTACTATATGAATCATACCTTGTTCGCGGAGTCACCTAGTGCAG | 8310 fluorescence intensity (a.u.) |
| GTCCGCCTCTAGCCATTGCATCGCCATCGCCCATGCGTGACGGAGTCACCTAGTGCAG | 8560 fluorescence intensity (a.u.) |
| TTTTCCGTTGTAACGCATGGGTATCCTCCTAGTAATTTCTCGGAGTCACCTAGTGCAG | 8910 fluorescence intensity (a.u.) |
| GCCTCGCCTCGCCTCGCTCTCGCGCTTCGAATCCCCACGCCGGAGTCACCTAGTGCAG | 9130 fluorescence intensity (a.u.) |
| GGGCGGGTCTTCTCACGCAAGTCCGGGGATGGTTGCCGCTCGGAGTCACCTAGTGCAG | 8480 fluorescence intensity (a.u.) |
| GGGTCCCTCGACATTGCATTGCCTCTTCTTCTTGTTCCAACGGAGTCACCTAGTGCAG | 8780 fluorescence intensity (a.u.) |
| TCTCTTGTTGTATGATACATCTTTTTAAATATATAGTTTTCGGAGTCACCTAGTGCAG | 10900 fluorescence intensity (a.u.) |
| AATTTAAATTTAAGTTTAGATTGTTTGTGTGTTTTTTTTTCGGAGTCACCTAGTGCAG | 8760 fluorescence intensity (a.u.) |
| CTACTCCTCCATCTATCTGTACCGGATTATCCTAATCGCGCGGAGTCACCTAGTGCAG | 8040 fluorescence intensity (a.u.) |

| Sequence | binding signal |
| --- | --- |
| CATGGGAGGTGTCAACGTTTTTTTTTTATTGTTTTTTTTTCGGAGTCACCTAGTGCAG | 9240 fluorescence intensity (a.u.) |
| CCAAAAACACTCACTCGGCCCACATCACGCCACCACCCCGCGGAGTCACCTAGTGCAG | 9750 fluorescence intensity (a.u.) |
| TTTGTGCTGTATTTGGCTTCCATCACTGTAACATTTCAATCGGAGTCACCTAGTGCAG | 9140 fluorescence intensity (a.u.) |
| TTGTCAGAGTTGATGAGTAGCTGTCCTCCTAGCGCTTTCGCGGAGTCACCTAGTGCAG | 9950 fluorescence intensity (a.u.) |
| TGTTTTTTTTCGCTTTTCTTATTTAAACGGTATTTTTTTCCGGAGTCACCTAGTGCAG | 11100 fluorescence intensity (a.u.) |
| CCATCTCCCGTCTCTCCGCCGCGCGCCGCCTCGTTGCTTTCGGAGTCACCTAGTGCAG | 9580 fluorescence intensity (a.u.) |
| TAATGTTGCCATGCTTTACTTAACTATAGTTTCGAAATTTCGGAGTCACCTAGTGCAG | 8570 fluorescence intensity (a.u.) |
| TATTTCTCTCGCCACAATCTCTGGCGGCGCCACAATCTTACGGAGTCACCTAGTGCAG | 8850 fluorescence intensity (a.u.) |
| TCGGCGGCGAGGTGGTGGCGGTGGCGGTGGTGGGAGTAGTCGGAGTCACCTAGTGCAG | 15200 fluorescence intensity (a.u.) |
| CTTGCTTACAGAGTTCCAGTTTCTCGTATTTCTGGTTTCTCGGAGTCACCTAGTGCAG | 8780 fluorescence intensity (a.u.) |
| GTGCCGGCGCCCGACGACGTCGCCCTCATCCGCGGCATCCCGGAGTCACCTAGTGCAG | 8050 fluorescence intensity (a.u.) |
| ATAACCCGCACCACCTCATCCGCCGCATCGATCCTCCCTCCGGAGTCACCTAGTGCAG | 8930 fluorescence intensity (a.u.) |
| TGTGTGTTCTTGTTTCTCTTGTTAATTTCTTGAGATCCTGCGGAGTCACCTAGTGCAG | 9690 fluorescence intensity (a.u.) |
| TCTCTCACCTTTTCTTCACTTTATGGGCATCATTTTCAGACGGAGTCACCTAGTGCAG | 8780 fluorescence intensity (a.u.) |
| TTGCCATTGAAACAAAGTGTTCTGTTCTGGTGGATGCTTTCGGAGTCACCTAGTGCAG | 8680 fluorescence intensity (a.u.) |
| TCGTTGACTTTTTTCTTAGTCAAATTTCTTTAAGTTTGACCGGAGTCACCTAGTGCAG | 42400 fluorescence intensity (a.u.) |
| AAGTTCCTTCTTATTTCTAAGTTCAGTCGTATCCTCTTAACGGAGTCACCTAGTGCAG | 8720 fluorescence intensity (a.u.) |
| TCCTTTCCTACATGTCGCCTTTGCCGTCGCCTCAACCACACGGAGTCACCTAGTGCAG | 14200 fluorescence intensity (a.u.) |
| GCTTTATTTCTCTCTTGCTTTCTTTTCATCCCCAACCAGTCGGAGTCACCTAGTGCAG | 8550 fluorescence intensity (a.u.) |
| ACTATACCTTTTTTTTAAGTCATTTAGTTTTTGCCAAAATCGGAGTCACCTAGTGCAG | 8030 fluorescence intensity (a.u.) |
| GTATTGTGTGATGTCCACTGGAGTATAGCTGGGTGGGGTACGGAGTCACCTAGTGCAG | 11300 fluorescence intensity (a.u.) |

Part of the list above in a different format:
Sequence	binding signal
CTTGCTTACAGAGTTCCAGTTTCTCGTATTTCTGGTTTCTCGGAGTCACCTAGTGCAG	8780 fluorescence intensity (a.u.)
GTGCCGGCGCCCGACGACGTCGCCCTCATCCGCGGCATCCCGGAGTCACCTAGTGCAG	8050 fluorescence intensity (a.u.)
TCTCTCACCTTTTCTTCACTTTATGGGCATCATTTTCAGACGGAGTCACCTAGTGCAG	8780 fluorescence intensity (a.u.)
